From patent US20030194378A1, “Novel aerosol formulation containing a polar fluorinated molecule” (priority 2000, published 2003)
At least one compound was matched to its structure with a doubt left.

Experiment: Stability of drug compounds in 4HPFOH compared with ethanol
Format: physicochemical
Conditions: after 3 weeks storage

A Levels of impurities (in 4HPFOH, 0.9315% w/v) of 0.14 % w/w and a Levels of impurities (in ethanol, 1.215% w/w) of 0.23 % w/w were found for `CCCC1O[C@@H]2C[C@H]3[C@@H]4CCC5=CC(=O)C=C[C@]5(C)[C@H]4[C@@H](O)C[C@]3(C)[C@]2(C(=O)CO)O1` (some centres unmarked) [Budesonide] in this work.
